The record followed here is publication PMC3764403 (Chemistry & Biology, 2008).

This data set is described as follows: general procedure: peptide synthesis; 2-chlorotrityl chloride polystyrene resin; PyBOP/HOBt/DIPEA; PyBrOP/DIPEA for coupling to MePhe. Conditions: whole synthesis, TFA salt.

Some peptides are written in HELM: one residue between dots, names in brackets for other building blocks, links after the first $.

Consider “PEPTIDE1{[ac].[dA].[Arg(MC)].[MePhe].[isoAsp]}$$$$V2.0”, for which the crude mass is 12.3 mg and the isolated mass worked out at 4.0 mg. The isolated yield (based on 0.21 mmol starting resin, scale of the general procedure 0.42 mmol resin, divided into two equal portions (0.21 mmol)) was found to be 26%.
